The test is described as follows: qHTS Assay for Lipid Storage Modulators in Drosophila S3 Cells.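 As to cell number change: cells counted by Cell Tracker Red CMTPX staining in the red channel.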 The settings on record: BODIPY lipid droplet fluorescence, 18-24 h; for cell number change: measured here: cell count max response, cells fed with added oleic acid. An outline of the steps: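 Laser-scanning cytometry quantifies lipid droplet accumulation (500–530 nm total intensity; droplet/cell object ratio) in oleic acid-fed (400 uM added) Drosophila S3 cells treated with a concentration series. 20 uM Triacsin C defined 100% inhibition.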

Setting [1] is: measured here: cell number channel AC50, cells fed with added oleic acid.
Setting [2] is: measured here: lipid fluorescence (Fed channel) AC50, cells fed with added oleic acid.

In general, AC50 refers to the midpoint of the concentration-response curve, whichever way the signal moves.

The other results are listed elsewhere or left out. Further columns of the screen follow, without active or inactive calls. The list favours compounds with an active or inconclusive main result. Words in brackets tell the shape of the fitted curve; partial curves, single points and poor fits give uncertain potencies.

For `CC1CCCC(C)N1CCNC(=O)CCn1nc(-c2ccccc2)ccc1=O` (configuration not stated), the cell number change was found to be 2.92%. For the same compound, the AC50 under setting [1] is 1.03 µM [falling, full curve]. The AC50 under setting [2] is 1.46 µM [falling, partial curve].
With `Cc1ccc(C)c(S(=O)(=O)N2CCN(C(=O)CCC(=O)c3cc(C)sc3C)CC2)c1`, the AC50 under setting [1] is 6.51 µM [rising, single point].
For `Cc1ccc(-c2nc(-c3ccccc3)no2)c(Cl)c1`, the cell number change stood at 6.73%. Besides, the AC50 under setting [2] is 20.6 µM [rising, single point].
For the compound `COc1cc(C)c(CN2CCN(S(=O)(=O)c3ccc(Cl)s3)CC2)cc1OC`, the AC50 under setting [2] was 7.31 µM [falling, single point].
On to `COc1ccc2c(c1)[C@H]1[C@H](CO2)[C@H](c2ccccc2)[C@]2(C)C(=O)Nc3cc(OC)c(OC)cc3C(=O)N12`, for which the cell number change was -25.4%. Also, the AC50 under setting [2] is 0.116 µM [falling, full curve, poor fit].
With `[N-]=[N+]=NC1c2ccccc2C(=O)N1Cc1ccccc1` (configuration not stated), the cell number change was -6.2%. Besides, the AC50 under setting [2] was 29.1 µM [rising, single point].
In the case of `COc1ccc(CCNC(=O)NCCc2c[nH]c3ccccc23)cc1OC`, the cell number change was -25.9%.
In the case of `Cc1ccc(-n2ncc3c(=O)[nH]c(SC(C)C)nc32)cc1`, the cell number change is -12.6%. Moreover, the AC50 under setting [1] is 4.11 µM [falling, partial curve]. For the same compound, under setting [2], the AC50 is 3.66 µM [falling, partial curve].
As for `COc1ccc(C(=O)NCC(=O)n2nc(C)cc2C)cc1OC`, the cell number change was determined as 12.7%. The AC50 under setting [2] is 0.103 µM [falling, full curve, poor fit].
As for `CC(C)(C)OC(=O)NCCCC[C@@H](C(=O)N1CCN(C(=O)OC(C)(C)C)CC1)n1cc(C(CO)NC(=O)OC(C)(C)C)nn1` (some centres not stated), under setting [2], the AC50 was 1.46 µM [falling, partial curve].
Consider `COc1ccc(S(=O)(=O)N2CCCCC2)cc1NC(=O)C1CCCC1`, for which the cell number change was -7.03%.
In the case of `CCOc1ccccc1NC1=C(Cl)C(=O)N(c2ccccc2)C1=O`, the AC50 under setting [1] is 2.59 µM [rising, single point].
With `CCOC(=O)c1ccc(NC(=O)Nc2cccc(C)n2)cc1`, the cell number change was 8.02%. Under setting [1], the AC50 is 0.259 µM [rising, full curve].
`CC(C)(C)c1nc2sc3c(c2c(=O)o1)CCCC3`: the cell number change is 6.29%.
With `CCOc1ccc(CCNC(=O)COC(=O)c2cc([N+](=O)[O-])ccc2N2CCOCC2)cc1OCC`, the cell number change was -54%. Moreover, the concentration at half-maximal activity (AC50) under setting [1] is 29.1 µM [falling, single point]. The AC50 under setting [2] was 29.1 µM [falling, single point].
Regarding `Cc1ccc(CCN2CC(C(=O)NCCc3ccccc3)CC2=O)cc1` (configuration not stated), the cell number change was 39.4%. Moreover, the AC50 under setting [1] is 13 µM [rising, partial curve, poor fit]. Moreover, the AC50 under setting [2] was 13 µM [rising, partial curve].
Regarding `COc1cc2c(cc1OC)C(C)N(C(=O)c1ccc(Cl)c(S(=O)(=O)N3CCCCC3)c1)CC2` (configuration not stated), the cell number change was -23%.
With `O=C(NCC(c1ccco1)N1CCOCC1)c1cccc([N+](=O)[O-])c1` (configuration not stated), the AC50 reads like this: under setting [1], 6.51 µM [falling, single point]; under setting [2], 0.58 µM [rising, single point].
In the case of `NC(=O)c1cc([N+](=O)[O-])ccc1NCc1cnccn1`, the cell number change is -3.61%. Also, the AC50 under setting [2] was 0.00461 µM [falling, full curve, poor fit].
With `COc1ccc(O)c(/C=N/NC(=O)c2ccc(OCc3cccc(Br)c3)cc2)c1`, the cell number change is -78%. In addition, under setting [1], the AC50 was 20.6 µM [falling, partial curve]. Further, the AC50 under setting [2] is 13 µM [falling, partial curve].
`CC1(c2nnc(Cc3ccccc3)o2)CC(c2ccccc2F)=NO1` (configuration not stated): the cell number change was -48.1%. For the same compound, under setting [1], the AC50 is 23.1 µM [falling, partial curve, poor fit]. In addition, the AC50 under setting [2] was 2.91 µM [falling, full curve].
As for `COc1ccccc1C(=O)N(Cc1nc(-c2ccc(Cl)cc2)no1)C(C)C`, the cell number change worked out at 55.3%. Besides, the AC50 under setting [1] is 8.2 µM [rising, partial curve]. Moreover, under setting [2], the concentration at half-maximal activity (AC50) is 29.1 µM [rising, single point].
For `Cc1ccc(N(CC(=O)NCc2ccccc2)C(=O)CCC(=O)Nc2ccccn2)cc1`, the cell number change came to 27.3%. The AC50 under setting [2] is 6.51 µM [falling, single point].
On to `N#Cc1ccsc1NC(=O)c1ccc(Cl)c([N+](=O)[O-])c1`, for which the cell number change was -1%. Moreover, the AC50 under setting [2] is 13 µM [falling, single point].
For the compound `Oc1ccccc1Nc1nc(NCc2ccco2)c2ccccc2n1`, the cell number change is -18%. Under setting [2], the AC50 was 3.26 µM [falling, full curve, poor fit].
Consider `CN(C)C(CNc1nnnn1-c1ccccc1)c1ccco1` (configuration not stated), for which the AC50 is 6.51 µM [rising, single point] under setting [1] and 6.51 µM [rising, single point] under setting [2].
In the case of `CCOc1ccc(S(=O)(=O)N2CCC(C(=O)OC(C)C(=O)NC3CCCCC3C)CC2)cc1` (configuration not stated), the cell number change is -17.3%.
Regarding `COc1ccc(C(C(=O)NC2CCCCC2)N(C(=O)c2sc(C)nc2C)c2ccc(OC)cc2)cc1` (configuration not stated), the cell number change was found to be 4.46%. In addition, under setting [2], the AC50 was 0.731 µM [rising, full curve].
As to `O=C(CSc1ccccc1F)NC1CCS(=O)(=O)C1` (configuration not stated), the cell number change was -30.5%. Also, under setting [2], the AC50 is 29.1 µM [falling, single point].
As to `CN(C)/C=C(\C=O)c1ncc(C(F)(F)F)cc1Cl`, the cell number change is -44.7%. Besides, the AC50 under setting [2] was 0.517 µM [falling, full curve].
With `O=C(NCCCCCCNC(=O)c1ccccc1O)c1ccccc1O`, the cell number change was -42.3%. Under setting [1], the AC50 was 16.4 µM [falling, single point]. The AC50 under setting [2] was 18.4 µM [falling, single point].
As for `O=C(/C=C/c1ccco1)NC(=S)Nc1cccc([N+](=O)[O-])c1`, the cell number change was -13.8%. Besides, the AC50 under setting [2] is 32.6 µM [falling, single point].
Regarding `COc1cccc(C(=O)NC(=O)Nc2cc(C)[nH]n2)c1`, the cell number change came to 19.5%. Further, the AC50 under setting [2] was 7.31 µM [rising, partial curve].
As for `O=C(c1ccccc1)c1ccc2nc(-c3ccco3)c(-c3ccco3)nc2c1`, the cell number change was -28.2%. Further, under setting [2], the AC50 was 29.1 µM [falling, single point].
Take `O=C1CCCc2ccccc2N1Cc1cccc(Cl)c1`: the cell number change was -19.7%. Moreover, the AC50 under setting [1] was 2.06 µM [falling, partial curve]. Further, the half-maximal activity concentration (AC50) under setting [2] was 9.2 µM [falling, partial curve, poor fit].
Regarding `COc1ccc(-c2cc(C(F)(F)F)n3ncc(C(=O)NCc4ccco4)c3n2)cc1`, the cell number change is -2.91%. Under setting [2], the AC50 is 0.92 µM [rising, full curve, poor fit].
As to `O=C(NCCc1ccccc1)c1ccc2c(c1)N(Cc1ccccc1)CCS2`, the cell number change was -9.91%.
Same read-out and setting: the same measure for `O=C(Nc1c(F)cccc1F)c1ccc2c(c1)CCN2S(=O)(=O)c1ccccc1`: 15.6%.
For the compound `Cc1nn(CC(=O)N(C)C)c(=O)c2ccccc12`, the cell number change is -9.18%. For the same compound, the AC50 under setting [2] was 1.03 µM [falling, partial curve].
For the compound `O=C(COC(=O)c1cncc(Br)c1)NC1CC1`, the cell number change is -126%. For the same compound, under setting [1], the AC50 is 29.1 µM [falling, partial curve, poor fit]. Further, under setting [2], the AC50 was 20.6 µM [falling, partial curve].
Take `O=C(Cn1c(=O)oc2ccccc21)NC(=O)NCc1ccccc1`: under setting [2], the AC50 is 29.1 µM [rising, single point].
With `COc1ccc(C(C(=O)NC(C)(C)C)N(CCO)C(=O)CCC(=O)Nc2cc(C)on2)cc1` (configuration not stated), the cell number change was -10.3%. The AC50 under setting [2] is 0.326 µM [falling, full curve, poor fit].
Regarding `Fc1ccc(NCc2nnc(SCc3nnc(-c4ccccc4)o3)n2Cc2ccccc2)cc1`, the cell number change was -27.3%. Besides, under setting [2], the AC50 is 18.4 µM [falling, single point].
`O=C(c1cccs1)N1CCCC(c2nc3c(nnn3Cc3ccccc3Cl)c(=O)[nH]2)C1` (configuration not stated): the cell number change was 17.6%. Under setting [1], the AC50 is 0.517 µM [rising, partial curve, poor fit]. Also, the AC50 under setting [2] was 29.1 µM [falling, single point].
As to `O=C(CN(Cc1ccccc1)S(=O)(=O)c1ccc(Br)cc1)NCC1CCCO1` (configuration not stated), the cell number change was determined as 34.9%.
`CN(C)c1ccc(NC(=O)COC(=O)CNC(=O)c2cccs2)cc1`: the cell number change came out at 18.9%. The AC50 under setting [1] is 0.92 µM [falling, full curve, poor fit]. Also, under setting [2], the AC50 is 0.00461 µM [falling, full curve, poor fit].
Consider `CC(=O)N(C)Cc1ccc(C(=O)CSc2nnc(C3CC3)n2C2CC2)cc1`, for which the cell number change was 18.9%. Besides, the AC50 under setting [2] is 0.00461 µM [rising, full curve, poor fit].
On to `COc1ccc(C2C(C#N)=C(/N=C/N3CCN(C)CC3)OC3=C2C(=O)CC(C)(C)C3)cc1` (configuration not stated), for which the cell number change amounted to 10.6%. Besides, under setting [2], the AC50 is 16.4 µM [falling, partial curve].
Turning to `Cc1ccc(C(=O)NCCCc2ccccc2)c(C)c1`, the cell number change is -3.5%.
In the case of `CC1Cc2ccccc2N1S(=O)(=O)c1cccc(C(=O)Nc2cccnc2)c1` (configuration not stated), the cell number change was -28.1%. Moreover, the AC50 under setting [2] was 9.2 µM [falling, partial curve].
Take `CCN1C(=O)N[C@@H](c2ccc(Br)cc2)C(C(=O)OC)=C1C`: the cell number change was -6.89%.
In the case of `COc1cc(-c2cc(C(=O)Nc3nc4ccccc4s3)c3ccccc3n2)cc(OC)c1OC`, the cell number change stood at 20.5%. Moreover, the AC50 under setting [2] was 16.4 µM [rising, partial curve, poor fit].
Consider `CCCCOC(=O)Nc1ccc(S(=O)(=O)Nc2nccs2)cc1`, for which the cell number change turned out to be 17.4%.
Regarding `O=C(OC1CCOC1=O)c1ccc(-c2nc3ccccc3s2)s1` (configuration not stated), the cell number change is -38.4%. Further, the AC50 under setting [1] was 29.1 µM [falling, single point]. Moreover, the AC50 under setting [2] was 23.1 µM [falling, single point].
As for `Nc1nc(C(=O)N2CCOCC2)nn1S(=O)(=O)c1ccc(Cl)cc1`, the cell number change is -22.7%. Also, the AC50 under setting [2] was 16.4 µM [falling, single point].
On to `Cc1onc(-c2ccccc2)c1C(=O)NC1CC1`, for which the cell number change was 16%.
In the case of `COc1ccc(-c2cc(C(=O)NCCCN3CCOCC3)on2)cc1OC`, the concentration at half-maximal activity (AC50) by setting is: under setting [1], 1.84 µM [falling, single point]; under setting [2], 29.1 µM [rising, single point].
`CCc1ccc(C(=O)COC(=O)c2cccs2)cc1`: the cell number change stood at 2.4%. Besides, under setting [2], the AC50 is 6.51 µM [falling, single point].

Source of the values: PubChem BioAssay AID2685 (National Center for Advancing Translational Sciences (NCATS), 2010).
